Values from PubChem BioAssay AID1508597 (Cure First, 2020).
Assay: 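Knock-downs altering ovarian cancer cell survival with or without PARP inhibitor rucaparib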 (primary screen). Cells: human ovarian carcinoma lines grown from tumours: OCI-P5x (papillary serous) and OCI-C5x (clear cell). Knock-down reagent: siRNA pool against human genes, 1.25 pmol siRNA per well. Timing: 72 h or 96 h, depending on the cell culture. Treatment: rucaparib 20 µM (about IC30) or vehicle, present until read-out. Rucaparib or vehicle: Vehicle. Cell line: OCI-C5x (clear cell). Measured: 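ATP luminescence measured at 72 or 96 h according to the culture, then normalised and expressed as percent viability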. Direction: viability, normalised: higher = more viable cells remaining. Rule for the call: 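Active when normalised viability falls below 80 percent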. Calls: active = viability under 80%; inactive = viability 80% or more.
This is a random part of the about 2,100 reagents, under one of the conditions tested. 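Calls flag viability under 80% in either arm, not effects specific to rucaparib; the reference for percent is not stated.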 Unmarked entries are inactive. A reagent listed more than once was tested more than once; the source does not tell the runs apart. The record does not give: the 100% reference.

gene,technical replicate,"viability, normalised (%)"
SUPT4H1,1,56.3 (active)
SUPT4H1,2,67.8 (active)
SUPT4H1,3,40.4 (active)
CHKB,1,68.8 (active)
CHKB,2,62 (active)
CHKB,3,48.7 (active)
ACTG1,1,67.4 (active)
ACTG1,2,59.8 (active)
ACTG1,3,58.8 (active)
HNRNPM,1,88.8
HNRNPM,2,84.2
HNRNPM,3,54.5 (active)
JMJD1C,1,63.2 (active)
JMJD1C,2,63.1 (active)
JMJD1C,3,79.2 (active)
XPO5,1,77.1 (active)
XPO5,2,67.3 (active)
XPO5,3,72.8 (active)
EXT1,1,67.1 (active)
EXT1,2,64.9 (active)
EXT1,3,62.2 (active)
SBNO1,1,42.9 (active)
SBNO1,2,36.5 (active)
SBNO1,3,57.1 (active)
MST1R,1,46.8 (active)
MST1R,2,36.7 (active)
MST1R,3,41.4 (active)
PTK2B,1,46.3 (active)
PTK2B,2,67.2 (active)
PTK2B,3,60.6 (active)
SOX6,1,56.5 (active)
SOX6,2,56.9 (active)
SOX6,3,50.1 (active)
ARID3A,1,55 (active)
ARID3A,2,60.1 (active)
ARID3A,3,56.6 (active)
PAF1,1,43.4 (active)
PAF1,2,40.1 (active)
PAF1,3,41.9 (active)
APTX,1,69 (active)
APTX,2,57.4 (active)
APTX,3,61.7 (active)
GSK3A,1,42.2 (active)
GSK3A,1,35.7 (active)
GSK3A,2,52.3 (active)
GSK3A,2,36.8 (active)
GSK3A,3,28.7 (active)
GSK3A,3,49.6 (active)
TRDMT1,1,56.7 (active)
TRDMT1,2,54.1 (active)
TRDMT1,3,61.5 (active)
MMS19,1,31.7 (active)
MMS19,2,45.3 (active)
MMS19,3,42 (active)
UIMC1,1,45.2 (active)
UIMC1,1,127
UIMC1,2,46.9 (active)
UIMC1,2,64.5 (active)
UIMC1,3,41.7 (active)
UIMC1,3,40.6 (active)
PAK4,1,62.5 (active)
PAK4,2,63.7 (active)
PAK4,3,65.5 (active)
SHH,1,47.3 (active)
SHH,2,39.3 (active)
SHH,3,38.4 (active)
ARX,1,40.5 (active)
ARX,2,39.3 (active)
ARX,3,40 (active)
GDPD5,1,5.73 (active)
GDPD5,2,43.4 (active)
GDPD5,3,49.9 (active)
PHF5A,1,31.9 (active)
PHF5A,2,38.5 (active)
PHF5A,3,31.7 (active)
